Among the data in the supplement of paper PMC10849652 are log2 fold change values, retold here.

Sequences of proteins named here, by UniProt entry; tags and fusion partners are left off. A change or cut given only in a name is not applied to a line headed by its entry.
UniProt P07737, whole entry, looked up: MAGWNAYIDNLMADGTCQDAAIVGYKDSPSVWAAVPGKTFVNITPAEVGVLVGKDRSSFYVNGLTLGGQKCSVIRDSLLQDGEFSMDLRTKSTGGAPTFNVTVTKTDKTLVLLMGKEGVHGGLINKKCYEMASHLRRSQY
UniProt O14737: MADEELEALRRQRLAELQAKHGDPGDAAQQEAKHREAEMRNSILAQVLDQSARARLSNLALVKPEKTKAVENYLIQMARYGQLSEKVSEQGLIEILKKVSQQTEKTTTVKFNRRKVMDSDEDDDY
UniProt Q9Y5B6: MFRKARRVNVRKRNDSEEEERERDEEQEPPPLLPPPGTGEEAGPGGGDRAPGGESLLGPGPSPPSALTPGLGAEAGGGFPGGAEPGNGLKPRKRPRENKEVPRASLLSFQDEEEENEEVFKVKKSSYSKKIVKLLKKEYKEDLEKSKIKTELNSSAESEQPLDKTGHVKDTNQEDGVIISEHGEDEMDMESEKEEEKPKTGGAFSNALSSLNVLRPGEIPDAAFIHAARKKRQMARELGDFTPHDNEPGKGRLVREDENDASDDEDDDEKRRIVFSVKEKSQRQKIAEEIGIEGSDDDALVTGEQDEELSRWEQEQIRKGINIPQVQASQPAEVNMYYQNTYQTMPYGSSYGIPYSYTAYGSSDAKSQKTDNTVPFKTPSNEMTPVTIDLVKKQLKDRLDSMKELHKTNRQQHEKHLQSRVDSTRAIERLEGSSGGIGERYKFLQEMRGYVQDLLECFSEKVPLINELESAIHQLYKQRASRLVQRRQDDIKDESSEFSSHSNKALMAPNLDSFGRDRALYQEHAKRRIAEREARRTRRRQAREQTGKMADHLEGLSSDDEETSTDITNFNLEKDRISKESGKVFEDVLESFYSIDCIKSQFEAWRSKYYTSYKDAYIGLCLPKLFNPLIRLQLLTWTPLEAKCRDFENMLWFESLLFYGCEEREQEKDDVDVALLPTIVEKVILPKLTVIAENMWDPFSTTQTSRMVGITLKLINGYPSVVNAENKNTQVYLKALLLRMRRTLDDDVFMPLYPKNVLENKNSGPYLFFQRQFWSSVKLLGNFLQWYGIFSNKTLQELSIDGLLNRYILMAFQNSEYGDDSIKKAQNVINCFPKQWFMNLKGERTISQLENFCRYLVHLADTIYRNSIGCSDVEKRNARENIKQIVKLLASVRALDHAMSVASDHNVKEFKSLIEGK
UniProt Q460N5, whole entry, looked up: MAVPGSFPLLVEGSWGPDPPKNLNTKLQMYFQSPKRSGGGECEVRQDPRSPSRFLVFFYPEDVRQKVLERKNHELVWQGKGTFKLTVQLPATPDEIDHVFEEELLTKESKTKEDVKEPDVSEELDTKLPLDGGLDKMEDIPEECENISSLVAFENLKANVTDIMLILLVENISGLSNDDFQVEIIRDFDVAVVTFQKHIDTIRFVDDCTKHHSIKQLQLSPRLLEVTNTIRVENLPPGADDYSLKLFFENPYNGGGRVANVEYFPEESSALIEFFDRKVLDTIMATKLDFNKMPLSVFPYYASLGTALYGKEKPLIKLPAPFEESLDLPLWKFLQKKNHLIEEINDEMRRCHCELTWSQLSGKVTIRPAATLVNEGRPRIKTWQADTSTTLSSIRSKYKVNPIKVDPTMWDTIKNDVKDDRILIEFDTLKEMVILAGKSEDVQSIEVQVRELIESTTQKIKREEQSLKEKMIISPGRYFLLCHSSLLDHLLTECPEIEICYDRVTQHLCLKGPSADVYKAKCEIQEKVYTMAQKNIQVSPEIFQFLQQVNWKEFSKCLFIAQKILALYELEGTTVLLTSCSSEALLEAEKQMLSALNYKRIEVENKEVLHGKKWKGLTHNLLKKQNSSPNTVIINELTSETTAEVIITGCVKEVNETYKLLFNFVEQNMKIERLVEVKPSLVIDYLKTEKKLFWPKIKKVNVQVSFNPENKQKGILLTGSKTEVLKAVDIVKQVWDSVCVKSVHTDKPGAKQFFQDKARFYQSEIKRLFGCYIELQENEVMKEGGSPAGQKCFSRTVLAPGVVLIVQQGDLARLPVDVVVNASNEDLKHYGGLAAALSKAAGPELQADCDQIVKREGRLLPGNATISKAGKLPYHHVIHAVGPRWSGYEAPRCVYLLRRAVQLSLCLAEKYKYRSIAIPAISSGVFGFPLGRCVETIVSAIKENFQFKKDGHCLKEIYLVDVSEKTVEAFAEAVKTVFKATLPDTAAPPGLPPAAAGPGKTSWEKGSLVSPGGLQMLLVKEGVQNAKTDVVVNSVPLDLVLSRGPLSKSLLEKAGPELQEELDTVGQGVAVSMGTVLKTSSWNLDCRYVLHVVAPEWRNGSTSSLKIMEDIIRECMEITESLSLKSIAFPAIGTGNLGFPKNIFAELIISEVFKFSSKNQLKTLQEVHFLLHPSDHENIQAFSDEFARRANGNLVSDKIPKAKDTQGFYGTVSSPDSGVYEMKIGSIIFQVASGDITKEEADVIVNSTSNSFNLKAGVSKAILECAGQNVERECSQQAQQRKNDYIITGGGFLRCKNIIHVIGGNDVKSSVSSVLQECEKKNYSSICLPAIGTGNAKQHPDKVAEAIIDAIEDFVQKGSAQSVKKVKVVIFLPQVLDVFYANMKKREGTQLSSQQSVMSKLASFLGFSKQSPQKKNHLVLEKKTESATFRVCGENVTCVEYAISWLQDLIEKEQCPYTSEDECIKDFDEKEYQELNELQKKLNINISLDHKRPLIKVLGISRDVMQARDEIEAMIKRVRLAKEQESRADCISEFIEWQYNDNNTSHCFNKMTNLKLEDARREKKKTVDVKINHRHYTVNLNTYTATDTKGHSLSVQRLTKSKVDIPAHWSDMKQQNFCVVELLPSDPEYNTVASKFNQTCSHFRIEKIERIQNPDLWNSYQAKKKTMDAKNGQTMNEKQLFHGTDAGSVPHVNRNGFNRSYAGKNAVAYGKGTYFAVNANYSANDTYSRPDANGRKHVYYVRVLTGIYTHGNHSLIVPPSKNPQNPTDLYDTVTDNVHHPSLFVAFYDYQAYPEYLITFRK
UniProt P61457: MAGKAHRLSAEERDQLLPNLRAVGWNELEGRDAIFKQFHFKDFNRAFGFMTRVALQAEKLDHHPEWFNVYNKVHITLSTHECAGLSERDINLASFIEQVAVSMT
UniProt Q99471, whole entry, looked up: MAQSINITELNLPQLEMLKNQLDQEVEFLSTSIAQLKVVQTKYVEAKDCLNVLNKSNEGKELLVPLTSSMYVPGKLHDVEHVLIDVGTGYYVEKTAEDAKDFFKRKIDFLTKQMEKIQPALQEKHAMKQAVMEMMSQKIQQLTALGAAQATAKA
UniProt Q15366, whole entry, looked up: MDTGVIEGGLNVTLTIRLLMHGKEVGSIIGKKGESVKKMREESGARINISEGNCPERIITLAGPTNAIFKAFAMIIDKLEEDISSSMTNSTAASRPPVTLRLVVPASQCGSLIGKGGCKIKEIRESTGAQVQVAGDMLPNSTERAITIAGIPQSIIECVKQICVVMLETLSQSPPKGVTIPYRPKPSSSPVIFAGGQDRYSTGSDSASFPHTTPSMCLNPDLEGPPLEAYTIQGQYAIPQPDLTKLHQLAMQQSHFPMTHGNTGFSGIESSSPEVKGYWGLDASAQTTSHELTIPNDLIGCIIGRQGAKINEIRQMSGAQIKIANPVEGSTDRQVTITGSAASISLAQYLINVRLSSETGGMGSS
UniProt Q53EL6: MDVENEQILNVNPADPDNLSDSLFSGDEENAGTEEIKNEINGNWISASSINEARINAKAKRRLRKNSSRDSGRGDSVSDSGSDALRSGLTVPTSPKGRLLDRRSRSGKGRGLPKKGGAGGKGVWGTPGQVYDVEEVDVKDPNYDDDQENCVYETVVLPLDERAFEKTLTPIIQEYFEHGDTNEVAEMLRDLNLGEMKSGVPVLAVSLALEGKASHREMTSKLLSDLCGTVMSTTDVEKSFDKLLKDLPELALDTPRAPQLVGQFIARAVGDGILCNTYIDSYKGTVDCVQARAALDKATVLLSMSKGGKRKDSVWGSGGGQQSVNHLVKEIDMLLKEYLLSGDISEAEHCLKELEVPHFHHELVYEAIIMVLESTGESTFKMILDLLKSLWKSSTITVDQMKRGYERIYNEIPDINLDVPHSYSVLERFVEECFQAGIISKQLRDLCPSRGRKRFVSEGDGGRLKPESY
UniProt Q9BRX2, whole entry, looked up: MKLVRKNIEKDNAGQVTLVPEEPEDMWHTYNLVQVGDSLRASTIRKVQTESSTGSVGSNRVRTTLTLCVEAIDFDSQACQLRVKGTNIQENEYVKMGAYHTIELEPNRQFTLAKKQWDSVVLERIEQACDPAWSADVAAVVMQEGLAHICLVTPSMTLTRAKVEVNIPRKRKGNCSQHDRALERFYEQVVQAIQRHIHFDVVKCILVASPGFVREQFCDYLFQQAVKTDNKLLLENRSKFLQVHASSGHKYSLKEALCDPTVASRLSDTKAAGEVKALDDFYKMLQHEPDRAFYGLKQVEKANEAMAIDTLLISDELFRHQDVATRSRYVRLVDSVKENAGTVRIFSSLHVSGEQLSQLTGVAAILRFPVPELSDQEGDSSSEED
UniProt Q15121, whole entry, looked up: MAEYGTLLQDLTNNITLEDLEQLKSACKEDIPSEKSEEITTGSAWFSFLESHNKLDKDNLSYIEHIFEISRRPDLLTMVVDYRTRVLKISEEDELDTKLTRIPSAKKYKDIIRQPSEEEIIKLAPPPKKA
UniProt Q9H2J4: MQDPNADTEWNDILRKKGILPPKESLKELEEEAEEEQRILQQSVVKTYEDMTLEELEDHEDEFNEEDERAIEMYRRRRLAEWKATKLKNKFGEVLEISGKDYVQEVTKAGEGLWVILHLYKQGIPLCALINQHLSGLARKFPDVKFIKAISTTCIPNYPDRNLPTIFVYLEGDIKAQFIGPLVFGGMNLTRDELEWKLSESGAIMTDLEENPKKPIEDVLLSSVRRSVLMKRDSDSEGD
UniProt Q8WUM4: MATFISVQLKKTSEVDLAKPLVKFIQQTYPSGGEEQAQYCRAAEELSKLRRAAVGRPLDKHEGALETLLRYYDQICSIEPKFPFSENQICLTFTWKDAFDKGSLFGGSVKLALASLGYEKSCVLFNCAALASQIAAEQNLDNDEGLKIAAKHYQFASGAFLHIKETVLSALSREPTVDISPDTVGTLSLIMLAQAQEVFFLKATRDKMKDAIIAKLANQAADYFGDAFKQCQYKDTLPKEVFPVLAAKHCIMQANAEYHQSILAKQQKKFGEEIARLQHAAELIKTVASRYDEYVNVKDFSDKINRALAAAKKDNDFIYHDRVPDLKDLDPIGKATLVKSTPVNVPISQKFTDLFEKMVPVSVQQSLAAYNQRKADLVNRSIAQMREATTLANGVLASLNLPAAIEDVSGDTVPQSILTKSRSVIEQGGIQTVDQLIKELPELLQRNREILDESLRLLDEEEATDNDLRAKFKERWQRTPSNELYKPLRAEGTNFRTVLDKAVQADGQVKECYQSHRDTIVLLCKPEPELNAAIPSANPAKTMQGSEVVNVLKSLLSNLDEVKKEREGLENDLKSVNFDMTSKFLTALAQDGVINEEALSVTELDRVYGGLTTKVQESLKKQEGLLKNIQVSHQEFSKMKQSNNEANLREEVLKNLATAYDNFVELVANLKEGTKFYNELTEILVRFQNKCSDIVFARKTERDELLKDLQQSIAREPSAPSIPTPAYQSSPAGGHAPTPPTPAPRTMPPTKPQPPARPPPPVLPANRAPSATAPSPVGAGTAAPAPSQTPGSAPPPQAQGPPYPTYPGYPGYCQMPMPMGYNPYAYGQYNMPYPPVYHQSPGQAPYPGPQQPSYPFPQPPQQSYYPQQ
UniProt Q9NQP4, whole entry, looked up: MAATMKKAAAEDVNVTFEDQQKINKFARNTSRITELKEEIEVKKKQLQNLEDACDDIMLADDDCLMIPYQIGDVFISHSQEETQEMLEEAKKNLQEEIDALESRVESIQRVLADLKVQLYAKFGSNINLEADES
UniProt Q6L8Q7: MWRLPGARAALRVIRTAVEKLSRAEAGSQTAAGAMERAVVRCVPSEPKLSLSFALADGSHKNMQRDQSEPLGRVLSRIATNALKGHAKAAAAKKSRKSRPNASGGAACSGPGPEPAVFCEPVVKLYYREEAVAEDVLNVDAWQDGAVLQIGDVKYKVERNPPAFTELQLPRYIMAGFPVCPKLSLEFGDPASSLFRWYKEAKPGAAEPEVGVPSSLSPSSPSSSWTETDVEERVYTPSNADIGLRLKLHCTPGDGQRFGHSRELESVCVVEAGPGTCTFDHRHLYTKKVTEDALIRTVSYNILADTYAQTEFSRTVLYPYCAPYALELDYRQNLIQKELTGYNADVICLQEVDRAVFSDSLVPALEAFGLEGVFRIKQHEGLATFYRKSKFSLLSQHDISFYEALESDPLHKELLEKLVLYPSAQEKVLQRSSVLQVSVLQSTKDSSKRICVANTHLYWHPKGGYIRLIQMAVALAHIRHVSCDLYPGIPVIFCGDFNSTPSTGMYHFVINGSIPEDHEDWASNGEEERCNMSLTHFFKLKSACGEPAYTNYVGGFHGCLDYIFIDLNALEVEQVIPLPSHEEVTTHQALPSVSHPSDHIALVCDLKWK
UniProt O15212, whole entry, looked up: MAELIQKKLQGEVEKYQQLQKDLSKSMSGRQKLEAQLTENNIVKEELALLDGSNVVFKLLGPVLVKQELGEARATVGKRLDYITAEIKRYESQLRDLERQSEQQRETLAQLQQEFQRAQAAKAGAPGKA

Some of the results follow.

Compound in the first experiment: CS(=O)(=O)N1CCN(Cc2cc3nc(-c4cccc5[nH]ncc45)nc(N4CCOCC4)c3s2)CC1 [pictilisib]
Briefly: log2 fold change, soluble protein after heating vs DMSO (PISA); higher = thermal stabilisation; K562 lysate, 10 uM; active = over 0.2 and 3.5 SD of the protein, either way, in both replicates (recomputed). In short, it runs like this: (§1)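 To prepare the extract, K562 pellets were dounce-homogenised in PBS pH 7.4 with 1 mM MgCl2, giving crude material at 1 mg/mL protein. This was treated with 10 μM compound for 30 min, then heated in aliquots for 3 min over 48°C-58°C before pooling and addition of NP-40 to 0.5% at 4°C. Centrifugation at 21,000xg for 90 min left soluble protein in the supernatant, which TMTpro 16plex LC-MS/MS quantified with equalised channel sums. Results are log-two fold changes in thermal stability compared with solvent controls, from duplicates.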
As for PFN1 (UniProt P07737), the log2 fold change was inactive: -0.003.

Take PDCD5 (UniProt O14737): the log2 fold change was inactive: -0.034.

In the case of PAXBP1 (UniProt Q9Y5B6), the log2 fold change is inactive: -0.077.

Regarding PARP14 (UniProt Q460N5), the log2 fold change was inactive: -0.057.

On to PCBD1 (UniProt P61457), for which the log2 fold change was inactive: -0.006.

With PFDN5 (UniProt Q99471), the log2 fold change was inactive: 0.004.

For the target PCBP2 isoform 3 (UniProt Q15366), the log2 fold change was inactive: -0.008.

For PDCD4 (UniProt Q53EL6), the log2 fold change was inactive: -0.003.

Turning to PELO (UniProt Q9BRX2), the log2 fold change is inactive: 0.001.

Regarding PEA15 isoform 2 (UniProt Q15121), the log2 fold change is inactive: -0.028.

Compound in another experiment: C[C@@H](Oc1cc(-c2cnn(C3CCNCC3)c2)cnc1N)c1c(Cl)ccc(F)c1Cl [crizotinib]
The description is as above. In short, it runs like this:
as §1
As for PDCL3 (UniProt Q9H2J4), the log2 fold change is inactive: 0.054.

With PATL1 (UniProt Q86TB9), the log2 fold change was inactive: -0.016.

With PDIA3 (UniProt H7BZJ3), the log2 fold change is inactive: 0.009.

On to PARN (UniProt O95453), for which the log2 fold change is inactive: -0.001.

As for PEX5 isoform 4 (UniProt P50542), the log2 fold change is inactive: -0.029.

For the target PFKM isoform 3 (UniProt P08237), the log2 fold change is inactive: -0.012.

As to PCTP (UniProt Q9UKL6), the log2 fold change was inactive: -0.032.

In the case of PCBP3 (UniProt P57721), the log2 fold change was inactive: 0.002.

Consider PDCD6IP (UniProt Q8WUM4), for which the log2 fold change is inactive: -0.103.

With PDCL (UniProt Q13371), the log2 fold change was inactive: -0.014.

Regarding PFDN4 (UniProt Q9NQP4), the log2 fold change is inactive: -0.015.

On to PCBP2 (UniProt H3BRU6), for which the log2 fold change is inactive: -0.04.

As for PDCD6IP isoform 2 (UniProt Q8WUM4), the log2 fold change is inactive: -0.015.

For the target PDIA4 (UniProt P13667), the log2 fold change was inactive: 0.09.

With PDE12 (UniProt Q6L8Q7), the log2 fold change is inactive: 0.016.

Take PCYT2 isoform 3 (UniProt Q99447): the log2 fold change was inactive: -0.06.

Regarding PDE2A (UniProt O00408), the log2 fold change is inactive: 0.074.

Turning to PCBP2 isoform 8 (UniProt Q15366), the log2 fold change is inactive: 0.001.

With PFDN6 (UniProt O15212), the log2 fold change was inactive: 0.018.

For the target PFDN2 (UniProt Q9UHV9), the log2 fold change was inactive: 0.054.

On to PDCD10 (UniProt Q9BUL8), for which the log2 fold change was inactive: -0.005.

For PAXIP1 (UniProt Q6ZW49), the log2 fold change is inactive: 0.034.

Consider PDRG1 (UniProt Q9NUG6), for which the log2 fold change is inactive: -0.015.

As to PFN1 (UniProt P07737), the log2 fold change was inactive: 0.016.

On to PDCD5 (UniProt O14737), for which the log2 fold change is inactive: 0.043.

Consider PAXBP1 (UniProt Q9Y5B6), for which the log2 fold change is inactive: -0.027.

Consider PARP14 (UniProt Q460N5), for which the log2 fold change was inactive: -0.154.

On to PCBD1 (UniProt P61457), for which the log2 fold change was inactive: -0.02.

As for PFDN5 (UniProt Q99471), the log2 fold change was inactive: 0.004.

In the case of PCBP2 isoform 3 (UniProt Q15366), the log2 fold change is inactive: 0.079.

For the target PDCD4 (UniProt Q53EL6), the log2 fold change was inactive: -0.055.

On to PELO (UniProt Q9BRX2), for which the log2 fold change is inactive: -0.064.

PEA15 isoform 2 (UniProt Q15121): the log2 fold change was inactive: 0.001.

Compound in a further experiment: C[C@H](C1=CC=C(C=C1)C(=O)NC2=C3C=CNC3=NC=C2)N
The experiment is described as above. In short, it runs like this: as §1
In the case of PDCL3 (UniProt Q9H2J4), the log2 fold change was inactive: -0.023.

Turning to PATL1 (UniProt Q86TB9), the log2 fold change is inactive: -0.034.

With PDIA3 (UniProt H7BZJ3), the log2 fold change is inactive: -0.115.

On to PARN (UniProt O95453), for which the log2 fold change was inactive: 0.043.

On to PEX5 isoform 4 (UniProt P50542), for which the log2 fold change was inactive: 0.044.

For PFKM isoform 3 (UniProt P08237), the log2 fold change was inactive: -0.031.

With PCTP (UniProt Q9UKL6), the log2 fold change is inactive: -0.096.

As for PCBP3 (UniProt P57721), the log2 fold change is inactive: -0.067.

Consider PDCD6IP (UniProt Q8WUM4), for which the log2 fold change was inactive: -0.106.

For the target PDCL (UniProt Q13371), the log2 fold change was inactive: -0.009.

On to PFDN4 (UniProt Q9NQP4), for which the log2 fold change was inactive: 0.045.

Consider PCBP2 (UniProt H3BRU6), for which the log2 fold change was inactive: 0.044.

PDCD6IP isoform 2 (UniProt Q8WUM4): the log2 fold change is inactive: 0.071.

As for PDIA4 (UniProt P13667), the log2 fold change was inactive: 0.029.

For PDE12 (UniProt Q6L8Q7), the log2 fold change was inactive: 0.022.

Regarding PCYT2 isoform 3 (UniProt Q99447), the log2 fold change is inactive: -0.057.

In the case of PDE2A (UniProt O00408), the log2 fold change is inactive: 0.05.

For the target PCBP2 isoform 8 (UniProt Q15366), the log2 fold change was inactive: 0.013.

PFDN6 (UniProt O15212): the log2 fold change was inactive: 0.056.

As to PFDN2 (UniProt Q9UHV9), the log2 fold change was active: 0.365.

PDCD10 (UniProt Q9BUL8): the log2 fold change was active: -0.254.

With PAXIP1 (UniProt Q6ZW49), the log2 fold change was inactive: 0.048.

Turning to PDRG1 (UniProt Q9NUG6), the log2 fold change is inactive: -0.063.

With PFN1 (UniProt P07737), the log2 fold change is inactive: -0.006.

For PDCD5 (UniProt O14737), the log2 fold change was inactive: -0.141.

As for PAXBP1 (UniProt Q9Y5B6), the log2 fold change is inactive: -0.037.

As to PARP14 (UniProt Q460N5), the log2 fold change was inactive: 0.148.

Regarding PCBD1 (UniProt P61457), the log2 fold change was inactive: -0.157.

As to PFDN5 (UniProt Q99471), the log2 fold change is inactive: 0.114.

PCBP2 isoform 3 (UniProt Q15366): the log2 fold change was inactive: -0.005.

In the case of PDCD4 (UniProt Q53EL6), the log2 fold change was inactive: -0.051.

Turning to PELO (UniProt Q9BRX2), the log2 fold change is active: 0.369.

For the target PEA15 isoform 2 (UniProt Q15121), the log2 fold change is inactive: 0.032.
